For this assay, the target named is T1, HaHV1 UL36h NLS peptide (residues 1491-1500), FITC/Ahx-labelled (haliotid herpesvirus 1 (HaHV1)).
T1 sequence (peptide): ETKKRRRILE
Nature of the assay: native gel or EMSA; both purified. On the technique in general: A gel shift assay detects complexes by their altered migration in electrophoresis.

Chains of the proteins cited; added tags and fusions are not shown.
UniProt P70168: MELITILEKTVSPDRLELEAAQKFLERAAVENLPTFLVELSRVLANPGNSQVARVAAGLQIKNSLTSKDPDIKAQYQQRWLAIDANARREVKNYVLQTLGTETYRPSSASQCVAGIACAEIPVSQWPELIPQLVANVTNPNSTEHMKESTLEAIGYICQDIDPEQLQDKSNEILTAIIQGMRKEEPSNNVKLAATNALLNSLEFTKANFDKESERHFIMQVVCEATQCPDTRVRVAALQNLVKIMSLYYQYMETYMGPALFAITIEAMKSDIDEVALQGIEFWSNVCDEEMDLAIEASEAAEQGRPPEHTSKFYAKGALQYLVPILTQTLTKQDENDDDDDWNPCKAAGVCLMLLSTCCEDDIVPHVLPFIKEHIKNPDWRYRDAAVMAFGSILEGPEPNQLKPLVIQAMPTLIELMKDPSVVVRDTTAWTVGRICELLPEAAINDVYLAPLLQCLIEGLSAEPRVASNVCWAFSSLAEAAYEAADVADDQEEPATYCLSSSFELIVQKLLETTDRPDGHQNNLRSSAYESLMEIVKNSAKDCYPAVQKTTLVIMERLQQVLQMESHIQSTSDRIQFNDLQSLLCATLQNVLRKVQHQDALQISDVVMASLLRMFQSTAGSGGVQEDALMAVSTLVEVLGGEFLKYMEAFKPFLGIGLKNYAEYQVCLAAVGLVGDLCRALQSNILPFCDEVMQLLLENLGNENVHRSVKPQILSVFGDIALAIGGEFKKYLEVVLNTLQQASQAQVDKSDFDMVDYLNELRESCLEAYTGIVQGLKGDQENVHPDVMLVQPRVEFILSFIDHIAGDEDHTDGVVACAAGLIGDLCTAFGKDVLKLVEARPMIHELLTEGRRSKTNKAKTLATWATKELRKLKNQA

This passage reports binding results from article PMC12474298.

Results are given in words; binding and its absence hold for the method and conditions named.

For the substance “mouse importin β1 (IMPβ1) (from UniProt P70168 1-876)”, the binding result is recorded as “no binding (tested: 20 μM (10 μM peptide))”.
